Results from US20200190592A1, “PME-1 AS A BIOMARKER TO PREDICT AND DIAGNOSE AN INCREASED RISK OF ENDOMETRIAL CANCER AND GENE SILENCING OF PME-1 TO INHIBIT EPITHELIAL TO MESENCHYMAL TRANSITION” (Medical Diagnostic Laboratories, L.L.C., priority 2018, published 2020).
These are yes or no findings as the source states them, for the method shown. In cells and extracts the contact can be indirect. Some entries that bind do so weakly or less than the wild type. Tags and fused reporters may be left off the sequences shown.

By UniProt entry, the sequences of proteins in these tests, tags left out.
UniProt P62714: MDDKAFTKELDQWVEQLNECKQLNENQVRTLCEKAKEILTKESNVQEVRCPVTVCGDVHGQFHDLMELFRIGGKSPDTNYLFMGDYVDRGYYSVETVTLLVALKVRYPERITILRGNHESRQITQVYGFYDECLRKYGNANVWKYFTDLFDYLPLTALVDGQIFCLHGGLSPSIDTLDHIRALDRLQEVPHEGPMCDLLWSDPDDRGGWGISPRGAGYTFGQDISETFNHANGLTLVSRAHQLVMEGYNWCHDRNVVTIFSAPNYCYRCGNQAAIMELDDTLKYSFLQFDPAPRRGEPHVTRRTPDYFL

T1: Endogenous Ppp4c, the catalytic subunit of PP4 (human) (UniProt P60510)
T1 sequence (looked up): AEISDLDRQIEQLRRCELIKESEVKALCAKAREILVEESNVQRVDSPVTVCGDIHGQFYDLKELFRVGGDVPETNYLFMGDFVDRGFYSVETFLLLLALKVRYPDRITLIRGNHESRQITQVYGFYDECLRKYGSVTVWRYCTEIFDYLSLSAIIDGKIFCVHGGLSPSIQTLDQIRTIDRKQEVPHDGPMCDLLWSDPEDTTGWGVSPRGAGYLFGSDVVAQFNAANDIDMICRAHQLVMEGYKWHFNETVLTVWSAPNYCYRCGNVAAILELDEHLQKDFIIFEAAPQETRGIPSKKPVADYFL

T2: FLAG-Ppp4c (UniProt P60510)
T2 sequence (looked up): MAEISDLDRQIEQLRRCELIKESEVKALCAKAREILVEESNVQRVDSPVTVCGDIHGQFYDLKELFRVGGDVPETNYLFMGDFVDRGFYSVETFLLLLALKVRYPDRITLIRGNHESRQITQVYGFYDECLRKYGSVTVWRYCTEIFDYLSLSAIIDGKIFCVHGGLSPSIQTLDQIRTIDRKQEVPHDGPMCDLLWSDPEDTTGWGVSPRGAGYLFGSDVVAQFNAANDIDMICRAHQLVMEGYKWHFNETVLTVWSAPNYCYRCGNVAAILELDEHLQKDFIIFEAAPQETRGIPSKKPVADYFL


Assays:
[1] = biological target: Ppp2cb, the beta isoform of the catalytic subunit of PP2A (human) (UniProt P62714); assay: FLAG co-immunoprecipitation from ECC-1 lysate, western blot (data not shown)
[2] = biological target: T1, Endogenous Ppp4c, the catalytic subunit of PP4 (human); assay: FLAG co-immunoprecipitation from ECC-1 lysate, western blot
[3] = biological target: T1, Endogenous Ppp4c, the catalytic subunit of PP4 (human); assay: FLAG co-immunoprecipitation from ECC-1 lysate, western blot (summary of the example)
[4] = biological target: T1, Endogenous Ppp4c, the catalytic subunit of PP4 (human); assay: FLAG co-immunoprecipitation from ECC-1 lysate, western blot with anti-Ppp4c
FLAG-Ppp4c = biological target: T2, FLAG-Ppp4c; assay: FLAG co-immunoprecipitation from co-transfected HEK293T cells, western blot with anti-V5

| Binder | binding [1] | binding [2] | binding [3] | binding [4] | binding (FLAG-Ppp4c) |
| --- | --- | --- | --- | --- | --- |
| V5-PME-1 (enzyme, human, UniProt Q9Y570 1-386, looked up, not shown: small tags and cut ends) MSALEKSMHLGRLPSRPPLPGSGGSQSGAKMRMGPGRKRDFSPVPWSQYFESMEDVEVENETGKDTFRVYKSGSEGPVLLLLHGGGHSALSWAVFTAAIISRVQCRIVALDLRSHGETKVKNPEDLSAETMAKDVGNVVEAMYGDLPPPIMLIGHSMGGAIAVHTASSNLVPSLLGLCMIDVVEGTAMDALNSMQNFLRGRPKTFKSLENAIEWSVKSGQIRNLESARVSMVGQVKQCEGITSPEGSKSIVEGIIEEEEEDEEGSESISKRKKEDDMETKKDHPYTWRIELAKTEKYWDGWFRGLSNLFLSCPIPKLLLLAGVDRLDKDLTIGQMQGKFQMQVLPQCGHAVHEDAPDKVAEAVATFLIRHRFAEPIGGFQCVFPGC |  |  |  |  | binds |
| V5-PME-1 S156A (enzyme, human, UniProt Q9Y570 1-386, looked up, not shown: small tags and cut ends) MSALEKSMHLGRLPSRPPLPGSGGSQSGAKMRMGPGRKRDFSPVPWSQYFESMEDVEVENETGKDTFRVYKSGSEGPVLLLLHGGGHSALSWAVFTAAIISRVQCRIVALDLRSHGETKVKNPEDLSAETMAKDVGNVVEAMYGDLPPPIMLIGHAMGGAIAVHTASSNLVPSLLGLCMIDVVEGTAMDALNSMQNFLRGRPKTFKSLENAIEWSVKSGQIRNLESARVSMVGQVKQCEGITSPEGSKSIVEGIIEEEEEDEEGSESISKRKKEDDMETKKDHPYTWRIELAKTEKYWDGWFRGLSNLFLSCPIPKLLLLAGVDRLDKDLTIGQMQGKFQMQVLPQCGHAVHEDAPDKVAEAVATFLIRHRFAEPIGGFQCVFPGC |  |  |  |  | binds |

Next, values leading:

| binding [1] | binding [2] | binding [3] | binding [4] | binding (FLAG-Ppp4c) | Binder |
| --- | --- | --- | --- | --- | --- |
| binds | binds | binds | binds |  | FLAG-tagged PME-1 (over-expression of wild-type PME-1) (enzyme, human, UniProt Q9Y570 1-386, looked up, not shown: small tags and cut ends) MSALEKSMHLGRLPSRPPLPGSGGSQSGAKMRMGPGRKRDFSPVPWSQYFESMEDVEVENETGKDTFRVYKSGSEGPVLLLLHGGGHSALSWAVFTAAIISRVQCRIVALDLRSHGETKVKNPEDLSAETMAKDVGNVVEAMYGDLPPPIMLIGHSMGGAIAVHTASSNLVPSLLGLCMIDVVEGTAMDALNSMQNFLRGRPKTFKSLENAIEWSVKSGQIRNLESARVSMVGQVKQCEGITSPEGSKSIVEGIIEEEEEDEEGSESISKRKKEDDMETKKDHPYTWRIELAKTEKYWDGWFRGLSNLFLSCPIPKLLLLAGVDRLDKDLTIGQMQGKFQMQVLPQCGHAVHEDAPDKVAEAVATFLIRHRFAEPIGGFQCVFPGC |
|  | binds |  |  |  | FLAG-tagged PME-1 S156A (catalytically inactive mutant) (enzyme, human, UniProt Q9Y570 1-386, looked up, not shown: small tags and cut ends) MSALEKSMHLGRLPSRPPLPGSGGSQSGAKMRMGPGRKRDFSPVPWSQYFESMEDVEVENETGKDTFRVYKSGSEGPVLLLLHGGGHSALSWAVFTAAIISRVQCRIVALDLRSHGETKVKNPEDLSAETMAKDVGNVVEAMYGDLPPPIMLIGHAMGGAIAVHTASSNLVPSLLGLCMIDVVEGTAMDALNSMQNFLRGRPKTFKSLENAIEWSVKSGQIRNLESARVSMVGQVKQCEGITSPEGSKSIVEGIIEEEEEDEEGSESISKRKKEDDMETKKDHPYTWRIELAKTEKYWDGWFRGLSNLFLSCPIPKLLLLAGVDRLDKDLTIGQMQGKFQMQVLPQCGHAVHEDAPDKVAEAVATFLIRHRFAEPIGGFQCVFPGC |
